These are yes or no findings as the source states them, for the method shown. Some results given as binding are weak or reduced against the parent protein; the word gives no strength. Where a sequence is shown, tags or fusion partners need not be part of it.
Target: T1, porcine DPEP1 (residues 17-385) from Drosophila S2 cells, tag removed, deglycosylated (crystallization) (porcine (Sus scrofa)), P22412
T1 chain: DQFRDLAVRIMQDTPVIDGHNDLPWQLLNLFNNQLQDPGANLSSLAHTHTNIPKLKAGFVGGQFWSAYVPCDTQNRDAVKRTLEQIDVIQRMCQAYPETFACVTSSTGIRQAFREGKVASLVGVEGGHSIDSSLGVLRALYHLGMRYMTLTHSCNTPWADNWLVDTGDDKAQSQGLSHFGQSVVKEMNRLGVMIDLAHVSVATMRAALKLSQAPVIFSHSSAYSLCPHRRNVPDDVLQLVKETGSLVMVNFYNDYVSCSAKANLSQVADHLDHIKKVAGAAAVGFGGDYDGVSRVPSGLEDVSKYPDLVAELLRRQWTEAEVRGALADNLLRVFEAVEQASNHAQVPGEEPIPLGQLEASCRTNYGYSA
Assay: crystal structure
Conditions: remark: other sources report otherwise

B1: porcine DPEP1 (residues 17-385) from Drosophila S2 cells, tag removed, deglycosylated (crystallization), P22412 17-385 (receptor)
chain: T1 chain
  binding: binds
